These are yes or no findings as the source states them, for the method shown. Binding seen in cells or lysates may run through a third protein. For some assays here: A result given as binding can be weak or reduced; the word gives no strength.
Columns and labels:
[1] = target: P. falciparum Isd11 with C-terminal His6 tag expressed in E. coli (P. falciparum) (UniProt Q8IEK7); experiment: pull-down + SEC; clarified lysate of E. coli coexpressing ∆2–50 mACP-HA2 and His-tagged Isd11; Ni-NTA pulldown of Isd11, imidazole eluate run over an S-100 size-exclusion column; Coomassie-stained SDS-PAGE and tandem MS
[2] = target: P. falciparum Isd11 with C-terminal His6 tag expressed in E. coli (P. falciparum) (UniProt Q8IEK7); experiment: co-IP + pull-down; clarified lysates of E. coli coexpressing an HA2-tagged ACP construct and Isd11-His6; anti-HA IP or Ni-NTA pulldown, western blot with anti-HA and anti-His6

The chains behind the UniProt entries cited, without tags or fusion partners.
UniProt P0A6A8: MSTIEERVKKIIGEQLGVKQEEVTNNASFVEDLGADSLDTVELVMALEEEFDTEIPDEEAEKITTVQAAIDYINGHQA

Molecule | binding [1] | binding [2]
Endogenous E. coli acyl carrier protein (from UniProt P0A6A8 1-78) | no binding | 
Full-length P. falciparum mACP-HA2 expressed in E. coli (protein, UniProt Q8I0V5 1-157) MRRNIIQKILFNNKNITLCNTYKRGFIQVLLKHGMNSKGIQNGFYNNKYILSAQKNSAFFSTEKSQDLSSLSKEQIEEKILTVLKKYLPPDVEIKYDEELEKYNTKDNRAWDFLDTVEFLIDIESEFNITIPDETADNIKTVQEVIDYIIQLNIKKT |  | binds

— article PMC8547962
